Measured values published in PubChem BioAssay AID330 (DTP/NCI, 2004).
The list shows only some results of the screen, not a fair sample: it gathers tests that were run many times, whatever their T/C, doses with no T/C, and many T/C values between a quarter and a half above the control. Other doses and runs of a compound stand elsewhere. T/C: endpoint of the treated group in % of that of the vehicle group. Some entries give survivors of the animals treated and no T/C: the source holds a T/C of zero for them, seemingly a mark for toxic or unscored doses. Some survivor counts are full or nearly so, which does not show that the dose was tolerated: the source hardly ever lists a survival T/C far under the control, and the zero likely stands for such cases as well. Counts of survivors are from the toxicity check (mostly the fifth day) where no day follows; animals may have died later. Schedules are NCI's codes, read here as Q, the interval in days (D) or hours (H), X, the number of doses. Some doses were run more than once; the values are given in rising order. For survival time, this PubChem deposit counts one and a half times the control or more as active, and values a quarter to a half above the control carry no call in these data; other NCI protocols may use other cut-offs. Some T/C values are followed by the survivors on the day toxicity was checked, most often the fifth; where none is given, no animal had died by that day. Signs of the kind (2×) say how often a value occurs here.

Test system: P388 leukemia ip, CD2F1 mice, survival T/C
Assay: NCI In Vivo Anticancer Drug Screen. Data for tumor model P388 Leukemia (intraperitoneal) in CD2F1 (CDF1) mice
Conditions: T/C endpoint: median survival time, higher T/C = longer survival
[1] = dose: 0.6 mg/kg/injection, schedule: Q04DX003 (ip), vehicle: saline + alcohol
[2] = dose: 100.0 micrograms/kg/injection, schedule: Q01DX005 (ip), vehicle: saline + alcohol
[3] = dose: 200.0 micrograms/kg/injection, schedule: Q01DX005 (ip), vehicle: saline + alcohol
[4] = dose: 200.0 micrograms/kg/injection, schedule: Q01DX005 (ip), vehicle: water
[5] = dose: 400.0 micrograms/kg/injection, schedule: Q01DX005 (ip), vehicle: saline + alcohol
[6] = dose: 400.0 micrograms/kg/injection, schedule: Q01DX005 (ip), vehicle: water
[7] = dose: 27.0 mg/kg/injection, schedule: Q01DX005 (ip), vehicle: saline with Tween-80
[8] = dose: 50.0 mg/kg/injection, schedule: Q01DX009 (ip), vehicle: saline with Tween-80
[9] = dose: 100.0 mg/kg/injection, schedule: Q01DX009 (ip), vehicle: saline with Tween-80

CO[C@H]1Nc2c(ccc(C)c2O)C(=O)N2C=C(/C=C/C(N)=O)C[C@@H]12
T/C (dose: 0.08 mg/kg/injection, schedule: Q04DX003 (ip), vehicle: saline + alcohol): 126 % of control [7 of 8 alive]
T/C (dose: 0.1 mg/kg/injection, schedule: Q04DX003 (ip), vehicle: saline): 128 % of control
T/C (dose: 0.13 mg/kg/injection, schedule: Q04DX003 (ip), vehicle: saline + alcohol): 132 % of control
survivor count (dose: 0.25 mg/kg/injection, schedule: Q01DX009 (ip), vehicle: saline with Tween-80): 5 of 6
T/C (dose: 0.4 mg/kg/injection, schedule: Q04DX003 (ip), vehicle: DMSO): 132 % of control
survivor count (dose: 0.5 mg/kg/injection, schedule: Q01DX009 (ip), vehicle: saline with Tween-80): 5 of 6
T/C [1]: 146 % of control [7 of 8 alive]
survivor count [1]: 2 of 8
survivor count (dose: 0.8 mg/kg/injection, schedule: Q04DX003 (ip), vehicle: DMSO): 5 of 6
survivor count (dose: 1.0 mg/kg/injection, schedule: Q01DX009 (ip), vehicle: saline with Tween-80): 1 of 6
survivor count (dose: 1.0 mg/kg/injection, schedule: Q04DX003 (ip), vehicle: saline + alcohol): 0 of 8 and 5 of 8
T/C (dose: 25.0 micrograms/kg/injection, schedule: Q01DX005 (ip), vehicle: saline + alcohol): 113, 115, 123 % of control (2×)
T/C (dose: 25.0 micrograms/kg/injection, schedule: Q01DX005 (ip), vehicle: water): 117, 129, 130, 133, 134, 138 % of control
T/C (dose: 25.0 micrograms/kg/injection, schedule: Q01DX009 (ip), vehicle: saline): 127 % of control [5 of 6 alive]
T/C (dose: 25.0 micrograms/kg/injection, schedule: Q04DX003 (ip), vehicle: saline with Tween-80): 129 % of control
T/C (dose: 50.0 micrograms/kg/injection, schedule: Q01DX005 (ip), vehicle: saline + alcohol): 120, 121 [5 of 6 alive], 122 (2×), 130, 140, 188 % of control
T/C (dose: 50.0 micrograms/kg/injection, schedule: Q01DX005 (ip), vehicle: water): 121, 129, 133, 134, 137, 138 % of control
T/C (dose: 50.0 micrograms/kg/injection, schedule: Q01DX009 (ip), vehicle: saline): 136 % of control
T/C (dose: 50.0 micrograms/kg/injection, schedule: Q04DX003 (ip), vehicle: saline with Tween-80): 126 % of control
T/C [2]: 117, 122, 130, 133, 142, 160 % of control
survivor count [2]: 3 of 6
T/C (dose: 100.0 micrograms/kg/injection, schedule: Q01DX005 (ip), vehicle: water): 131, 132, 140, 142, 148, 153 % of control [4 of 5 alive]
T/C (dose: 100.0 micrograms/kg/injection, schedule: Q01DX009 (ip), vehicle: saline): 140 % of control
T/C (dose: 100.0 micrograms/kg/injection, schedule: Q04DX003 (ip), vehicle: saline with Tween-80): 129 % of control
T/C [3]: 132, 144, 150, 153, 157 [5 of 6 alive], 207 % of control [4 of 6 alive]
survivor count [3]: 1 of 6
T/C [4]: 135, 138 [5 of 6 alive], 141 [4 of 5 alive], 147, 163 % of control
survivor count [4]: 5 of 5
T/C [5]: 103, 165 [4 of 5 alive], 177 % of control
survivor count [5]: 0 of 6, 1 of 6, 5 of 6, 6 of 6
T/C [6]: 151, 165, 175 % of control [5 of 6 alive]
survivor count [6]: 2 of 5 and 6 of 6
survivor count (dose: 800.0 micrograms/kg/injection, schedule: Q01DX005 (ip), vehicle: saline + alcohol): 3 of 6

O=C(c1ccccc1)c1no[n+]([O-])c1C(=O)c1ccccc1
T/C (dose: 6.25 mg/kg/injection, schedule: Q01DX009 (ip), vehicle: Klucel (hydroxypropylcellulose) (HPC)): 129 % of control
T/C (dose: 12.5 mg/kg/injection, schedule: Q01DX009 (ip), vehicle: Klucel (hydroxypropylcellulose) (HPC)): 129 % of control
survivor count (dose: 25.0 mg/kg/injection, schedule: Q01DX009 (ip), vehicle: Klucel (hydroxypropylcellulose) (HPC)): 0 of 6 and 3 of 6

O=C1c2ccccc2C(=O)c2c1cccc2N1CCOCC1
survivor count (dose: 100.0 mg/kg/injection, schedule: Q01DX009 (ip), vehicle: Klucel (hydroxypropylcellulose) (HPC)): 6 of 6

CC1OC(OC2C(OC3C(OC4CCC5(C)C(CCC6(C)C5CC=C5C7CC(C)(C)CCC7(C(=O)O)CCC56C)C4(C)C)OCC(O)C3O)OC(CO)C(O)C2O)C(O)C(O)C1O (stereo not given)
survivor count (dose: 15.0 mg/kg/injection, schedule: Q01DX005 (ip), vehicle: distilled water + Tween-80): 0 of 6
survivor count (dose: 30.0 mg/kg/injection, schedule: Q01DX005 (ip), vehicle: distilled water + Tween-80): 0 of 6
survivor count (dose: 60.0 mg/kg/injection, schedule: Q01DX005 (ip), vehicle: distilled water + Tween-80): 0 of 6
survivor count (dose: 120.0 mg/kg/injection, schedule: Q01DX005 (ip), vehicle: distilled water + Tween-80): 0 of 6
survivor count (dose: 240.0 mg/kg/injection, schedule: Q01DX005 (ip), vehicle: distilled water + Tween-80): 0 of 6

C/C(=N/NC(=S)NCc1ccccc1)c1ncccn1
survivor count (dose: 100.0 mg/kg/injection, schedule: Q01DX005 (ip), vehicle: saline with Tween-80): 3 of 6
survivor count (dose: 200.0 mg/kg/injection, schedule: Q01DX005 (ip), vehicle: saline with Tween-80): 0 of 6

C[CH2][Sn]([CH2]C)([CH2]C(=O)OC)[CH2]C(=O)OC
T/C (dose: 2.7 mg/kg/injection, schedule: Q03HX015 (ip), vehicle: saline with Tween-80): 131 % of control
T/C (dose: 4.0 mg/kg/injection, schedule: Q03HX015 (ip), vehicle: saline with Tween-80): 141 % of control
T/C (dose: 6.0 mg/kg/injection, schedule: Q03HX015 (ip), vehicle: saline with Tween-80): 144 % of control
T/C (dose: 8.0 mg/kg/injection, schedule: Q01DX005 (ip), vehicle: saline with Tween-80): 136 % of control
T/C (dose: 12.0 mg/kg/injection, schedule: Q01DX005 (ip), vehicle: saline with Tween-80): 144 % of control
T/C (dose: 13.3 mg/kg/injection, schedule: Q03HX015 (ip), vehicle: saline with Tween-80): 145 [7 of 10 alive] and 147 % of control [9 of 10 alive]
survivor count (dose: 20.0 mg/kg/injection, schedule: Q03HX015 (ip), vehicle: saline with Tween-80): 0 of 10 and 2 of 10
survivor count (dose: 25.0 mg/kg/injection, schedule: Q01DX009 (ip), vehicle: saline with Tween-80): 1 of 6
T/C [7]: 144 % of control [8 of 10 alive]
survivor count [7]: 3 of 10
survivor count (dose: 30.0 mg/kg/injection, schedule: Q03HX015 (ip), vehicle: saline with Tween-80): 0 of 10
survivor count (dose: 40.0 mg/kg/injection, schedule: Q01DX005 (ip), vehicle: saline with Tween-80): 0 of 10
survivor count (dose: 45.0 mg/kg/injection, schedule: Q03HX015 (ip), vehicle: saline with Tween-80): 0 of 10
T/C [8]: 149 % of control
survivor count [8]: 0 of 6
survivor count (dose: 60.0 mg/kg/injection, schedule: Q01DX005 (ip), vehicle: saline with Tween-80): 0 of 10
survivor count (dose: 90.0 mg/kg/injection, schedule: Q01DX005 (ip), vehicle: saline with Tween-80): 0 of 10
survivor count [9]: 0 of 6
survivor count (dose: 135.0 mg/kg/injection, schedule: Q01DX005 (ip), vehicle: saline with Tween-80): 0 of 10
survivor count (dose: 200.0 mg/kg/injection, schedule: Q01DX009 (ip), vehicle: saline with Tween-80): 0 of 6

O=C(O)/C=C\C(=O)OCc1ccc(Cl)cc1Cl
survivor count [9]: 4 of 6

NS(=O)(=O)c1cc([N+](=O)[O-])c(SSc2sc(S(N)(=O)=O)cc2[N+](=O)[O-])s1
survivor count (dose: 400.0 mg/kg/injection, schedule: Q01DX001 (ip), vehicle: Klucel (hydroxypropylcellulose) (HPC)): 2 of 6

CCC1CN1P(=O)(N(CC)CC)N1CC1CC (stereo not given)
T/C (dose: 66.0 mg/kg/injection, schedule: Q01DX009 (ip), vehicle: saline): 130 % of control
T/C (dose: 100.0 mg/kg/injection, schedule: Q01DX009 (ip), vehicle: saline): 140 % of control
T/C (dose: 150.0 mg/kg/injection, schedule: Q01DX009 (ip), vehicle: saline): 125 % of control
survivor count (dose: 200.0 mg/kg/injection, schedule: Q01DX009 (ip), vehicle: saline): 6 of 6
